# Where “and” joins values, the source holds several entries; their conditions need not be identical. Identical values can stand only once. This continues a long series; more values of the same kind are listed elsewhere.
# Tested on: U2OS cells
# Test: Cell growth assay (IncuCyte confluence over 72 h)
# Type: cell-based
# Set-up: key: % of well area covered by cells (confluence)
# Settings: listed as AN1
# Description: Cell growth assay: Cell confluence (phase) from RPE1 (hTERT RPE-1, ATCC CLR_4000) or U2OS (ATCC, HTB-96) cell lines were monitored over time with the IncuCyte S3 (Sartiorius, Germany) in 384-well plates in 50 ul DMEM media, supplemented with 10% Fetal Bovine Serum (FBS) 1% penicillin/Streptomycin and incubated 24 h before treatment. Experiment was performed as described in Cano-Franco et al.. […] Cell confluence is represented as % of area covered by cells. Each data point represents the average ratio or confluence obtained from three individual wells of the plate.
compound,measurement,setting,value
O=C1Nc2ccc(Br)cc2C1=Cc1cc(O)c(O)c(Br)c1 [compound 1],U2OS cell growth,"100 nM, 20 h",40.3593 and 42.0161 and 29.2198
same,U2OS cell growth,"100 nM, 22 h",47.1624 and 48.8873 and 37.6593
same,U2OS cell growth,"100 nM, 24 h",44.465 and 44.6258 and 38.7272
same,U2OS cell growth,"100 nM, 26 h",48.602 and 48.5871 and 40.0085
same,U2OS cell growth,"100 nM, 28 h",53.2378 and 51.0784 and 44.2737
same,U2OS cell growth,"100 nM, 30 h",52.1241 and 56.8497 and 46.7302
same,U2OS cell growth,"100 nM, 32 h",52.332 and 56.7876 and 43.3356
same,U2OS cell growth,"100 nM, 34 h",56.4986 and 58.8113 and 49.6077
same,U2OS cell growth,"100 nM, 36 h",58.6166 and 63.5303 and 43.2028
same,U2OS cell growth,"100 nM, 38 h",77.7639 and 74.5543 and 64.4358
same,U2OS cell growth,"100 nM, 40 h",68.3542 and 69.419 and 54.429
same,U2OS cell growth,"100 nM, 42 h",76.7784 and 72.4254 and 61.9031
same,U2OS cell growth,"100 nM, 44 h",73.6287 and 78.1204 and 68.1469
same,U2OS cell growth,"100 nM, 46 h",79.0744 and 76.7879 and 63.227
same,U2OS cell growth,"100 nM, 48 h",81.938 and 81.0935 and 63.2584
same,U2OS cell growth,"100 nM, 50 h",79.5385 and 82.2944 and 67.0083
same,U2OS cell growth,"100 nM, 52 h",85.537 and 80.9232 and 75.3459
same,U2OS cell growth,"100 nM, 54 h",88.5533 and 74.3088 and 78.8125
same,U2OS cell growth,"100 nM, 56 h",89.7175 and 89.5774 and 78.6502
same,U2OS cell growth,"100 nM, 58 h",86.6709 and 87.9635 and 78.5974
same,U2OS cell growth,"100 nM, 60 h",98.084 and 96.9974 and 93.4356
same,U2OS cell growth,"100 nM, 62 h",94.0484 and 95.3317 and 86.8705
same,U2OS cell growth,"100 nM, 64 h",93.7005 and 94.9658 and 88.4931
same,U2OS cell growth,"100 nM, 66 h",97.1488 and 95.9078 and 90.8217
same,U2OS cell growth,"100 nM, 68 h",95.4599 and 97.6749 and 91.2083
same,U2OS cell growth,"100 nM, 70 h",96.0033 and 93.7473 and 94.9086
same,U2OS cell growth,"100 nM, 72 h",94.8126 and 98.1258 and 92.4062
same,U2OS cell growth,"100 nM, time 0 h",21.9567 and 22.1211 and 20.6153
same,U2OS cell growth,"100 nM, time 2 h",23.1193 and 26.0513 and 27.5425
same,U2OS cell growth,"100 nM, time 4 h",28.0919 and 24.4778 and 24.9181
same,U2OS cell growth,"100 nM, time 6 h",29.5937 and 30.6061 and 32.3593
same,U2OS cell growth,"100 nM, time 22 h",46.6587 and 44.8263 and 47.8299
same,U2OS cell growth,"100 nM, time 24 h",47.4234 and 41.3499 and 45.5274
same,U2OS cell growth,"100 nM, time 26 h",49.354 and 46.9628 and 51.14
same,U2OS cell growth,"100 nM, time 28 h",61.4289 and 50.0838 and 55.8093
same,U2OS cell growth,"100 nM, time 30 h",54.7104 and 51.2124 and 54.5607
same,U2OS cell growth,"100 nM, time 32 h",56.4995 and 54.3411 and 61.8974
same,U2OS cell growth,"100 nM, time 34 h",62.5173 and 59.1923 and 66.4209
same,U2OS cell growth,"100 nM, time 36 h",61.921 and 58.4979 and 64.8089
same,U2OS cell growth,"100 nM, time 38 h",76.036 and 68.1076 and 76.4454
same,U2OS cell growth,"100 nM, time 40 h",66.9756 and 64.3872 and 70.3312
same,U2OS cell growth,"100 nM, time 42 h",75.4688 and 66.3078 and 73.7496
same,U2OS cell growth,"100 nM, time 44 h",77.3622 and 72.6268 and 82.1527
same,U2OS cell growth,"100 nM, time 46 h",76.8576 and 63.6378 and 79.6082
same,U2OS cell growth,"100 nM, time 48 h",85.2137 and 78.3549 and 84.3294
same,U2OS cell growth,"100 nM, time 50 h",82.3085 and 74.8824 and 84.0253
same,U2OS cell growth,"100 nM, time 52 h",84.2751 and 81.0265 and 87.7303
same,U2OS cell growth,"100 nM, time 54 h",75.0716 and 75.5887 and 90.1517
same,U2OS cell growth,"100 nM, time 56 h",89.6793 and 86.153 and 92.1114
same,U2OS cell growth,"100 nM, time 58 h",89.0774 and 85.9398 and 92.0702
same,U2OS cell growth,"100 nM, time 62 h",93.6041 and 91.3214 and 94.5686
same,U2OS cell growth,"100 nM, time 64 h",93.5021 and 92.3567 and 96.8193
same,U2OS cell growth,"100 nM, time 66 h",93.1507 and 94.1047 and 94.9132
same,U2OS cell growth,"100 nM, time 68 h",96.7693 and 95.5928 and 97.8491
same,U2OS cell growth,"100 nM, time 72 h",96.8164 and 96.0661 and 98.6321
same,U2OS cell growth,"500 nM, 20 h",47.3327 and 47.2476 and 51.4247
same,U2OS cell growth,"500 nM, 22 h",52.6829 and 55.4408 and 57.9477
same,U2OS cell growth,"500 nM, 24 h",48.1552 and 52.333 and 63.9871
same,U2OS cell growth,"500 nM, 26 h",52.0707 and 55.0565 and 61.8975
same,U2OS cell growth,"500 nM, 28 h",55.3463 and 60.0832 and 59.9447
same,U2OS cell growth,"500 nM, 30 h",57.0598 and 61.8753 and 66.2399
same,U2OS cell growth,"500 nM, 32 h",60.6019 and 62.8599 and 65.6454
same,U2OS cell growth,"500 nM, 34 h",61.5932 and 68.0316 and 73.828
same,U2OS cell growth,"500 nM, 36 h",65.3017 and 71.6372 and 72.9317
same,U2OS cell growth,"500 nM, 38 h",76.1236 and 77.9367 and 83.6008
same,U2OS cell growth,"500 nM, 40 h",73.5823 and 77.4659 and 81.5251
same,U2OS cell growth,"500 nM, 42 h",77.2567 and 78.2134 and 82.1066
same,U2OS cell growth,"500 nM, 44 h",77.863 and 81.761 and 85.2505
same,U2OS cell growth,"500 nM, 46 h",69.923 and 76.7885 and 84.2058
same,U2OS cell growth,"500 nM, 48 h",81.4475 and 85.8143 and 89.522
same,U2OS cell growth,"500 nM, 50 h",81.6727 and 87.5695 and 88.7181
same,U2OS cell growth,"500 nM, 52 h",86.1189 and 91.7552 and 92.6222
same,U2OS cell growth,"500 nM, 54 h",81.3846 and 90.7649 and 91.7682
same,U2OS cell growth,"500 nM, 56 h",89.5696 and 92.9592 and 91.0931
same,U2OS cell growth,"500 nM, 58 h",89.6632 and 91.1472 and 94.1441
same,U2OS cell growth,"500 nM, 60 h",97.6246 and 97.3955 and 97.9649
same,U2OS cell growth,"500 nM, 62 h",95.6119 and 97.2161 and 95.9684
same,U2OS cell growth,"500 nM, 64 h",93.8601 and 97.5402 and 95.7622
same,U2OS cell growth,"500 nM, 66 h",95.9766 and 97.4674 and 97.4999
same,U2OS cell growth,"500 nM, 68 h",97.0437 and 98.8544 and 98.2309
same,U2OS cell growth,"500 nM, 70 h",95.6908 and 97.8445 and 97.14
same,U2OS cell growth,"500 nM, 72 h",98.5293 and 97.1499 and 98.062

# — PMC11589570, “Critical assessment of LC3/GABARAP ligands used for degrader development and ligandability of LC3/GABARAP binding pockets” (Nature Communications, 2024)
